# In publication PMC3375313:
# No constants are given. Whether binding was seen depends on the method and setting. For some assays here: Binding calls can cover weak binding; strength is not graded here. Tags and fused reporters may be left off the sequences shown. For some assays here: In cells and extracts the contact can be indirect.
# T1: GST-TFT1 (tomato) (UniProt P93206)
# T1 sequence: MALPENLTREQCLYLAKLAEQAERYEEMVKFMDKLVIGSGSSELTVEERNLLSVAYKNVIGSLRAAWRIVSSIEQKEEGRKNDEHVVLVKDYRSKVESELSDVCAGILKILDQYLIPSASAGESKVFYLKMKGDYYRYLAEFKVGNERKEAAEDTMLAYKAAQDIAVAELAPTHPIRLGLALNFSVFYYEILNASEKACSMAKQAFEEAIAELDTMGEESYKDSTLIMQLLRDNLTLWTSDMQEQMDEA
# Key:
# GST-TFT1 (tomato) [1] = molecular target: T1, GST-TFT1 (tomato); assay: pull-down; GST-TFT1 on glutathione sepharose beads incubated 2 h at 4°C with N. benthamiana leaf extract containing TARK1-HA and XopN(L64A,L65A)-6His; same buffer; only the target purified
# GST-TFT1 (tomato) [2] = molecular target: T1, GST-TFT1 (tomato); assay: pull-down; GST or GST-TFT1 on glutathione sepharose beads incubated 2 h at 4°C with N. benthamiana leaf extract containing TARK1-HA and XopN-6His; 50 mM Tris pH 8, 150 mM NaCl, 2% glycerol, 1% Triton X-100; only the target purified
# GST-TFT1 (tomato) [3] = molecular target: T1, GST-TFT1 (tomato); assay: pull-down; GST-TFT1 on glutathione sepharose beads incubated 2 h at 4°C with N. benthamiana leaf extract containing TARK1-HA and XopN(S688A)-6His; same buffer; only the target purified
# [4] = molecular target: DBD-XopN (GAL4 DNA-binding domain fused to XopN 1–733) (Xanthomonas campestris pv. vesicatoria); assay: two-hybrid; GAL4-based, yeast AH109; DBD-XopN fusions (pXDGATcy86) as bait, AD-TFT1 or AD-TARK1CD (pGADT7) as prey; growth on SD-LTH ± 1 mM 3-amino-1,2,4-triazole, 30°C, 3 d
# [5] = molecular target: DBD-XopN M5 (1–604) (Xanthomonas campestris pv. vesicatoria); assay: as above
# [6] = molecular target: DBD-XopN M6 (1–514) (Xanthomonas campestris pv. vesicatoria); assay: as above
# [7] = molecular target: DBD-XopN(S688A) (Xanthomonas campestris pv. vesicatoria); assay: as above
# [8] = molecular target: DBD-XopN N (1–349) (Xanthomonas campestris pv. vesicatoria); assay: as above
# [9] = molecular target: XopN-6His (full-length) (Xanthomonas campestris pv. vesicatoria); assay: pull-down; Ni-NTA agarose pull-down of 6His-tagged XopN proteins from soluble extracts of N. benthamiana leaves co-expressing TFT1-HA or TARK1-HA (48 h); 50 mM NaH2PO4 pH 8.0, 150 mM NaCl, 10 mM imidazole, 2% glycerol, 1% Triton X-100; anti-His and anti-HA blots
# [10] = molecular target: XopN(L64A,L65A)-6His (Xanthomonas campestris pv. vesicatoria); assay: as above
# [11] = molecular target: XopN(S688D)-6His (Xanthomonas campestris pv. vesicatoria); assay: as above
# [12] = molecular target: XopN-ΔPEST-6His (Xanthomonas campestris pv. vesicatoria); assay: as above
# [13] = molecular target: XopN(S688A)-6His (Xanthomonas campestris pv. vesicatoria); assay: as above
# [14] = molecular target: XopN-ΔM1/M2-6His (Xanthomonas campestris pv. vesicatoria); assay: as above
# [15] = molecular target: XopN(S688E)-6His (Xanthomonas campestris pv. vesicatoria); assay: as above
# [16] = molecular target: XopN(1–349)-6His (N-terminal domain) (Xanthomonas campestris pv. vesicatoria); assay: as above
# [17] = molecular target: XopN(1–604)-6His (Xanthomonas campestris pv. vesicatoria); assay: as above
# [18] = molecular target: XopN-nYFP (Xanthomonas campestris pv. vesicatoria); assay: split reporter; BiFC in N. benthamiana leaf epidermal cells, two Agrobacterium strains (nYFP fusion + cCFP fusion), confocal microscopy at 48 HPI
# [19] = molecular target: XopN(S688A)-nYFP (Xanthomonas campestris pv. vesicatoria); assay: as above
# [20] = molecular target: XopN(L64A,L65A)-nYFP (Xanthomonas campestris pv. vesicatoria); assay: as above
molecule,measurement,setting,value
"XopN(L64A,L65A)-6His (Xanthomonas campestris pv. vesicatoria)",binding,GST-TFT1 (tomato) [1],binds
XopN-6His (full-length) (Xanthomonas campestris pv. vesicatoria),binding,GST-TFT1 (tomato) [2],binds
XopN(S688A)-6His (Xanthomonas campestris pv. vesicatoria),binding,GST-TFT1 (tomato) [3],binds
"AD-TFT1 (GAL4 activation domain fused to TFT1) (protein, UniProt P93206 1-249) MALPENLTREQCLYLAKLAEQAERYEEMVKFMDKLVIGSGSSELTVEERNLLSVAYKNVIGSLRAAWRIVSSIEQKEEGRKNDEHVVLVKDYRSKVESELSDVCAGILKILDQYLIPSASAGESKVFYLKMKGDYYRYLAEFKVGNERKEAAEDTMLAYKAAQDIAVAELAPTHPIRLGLALNFSVFYYEILNASEKACSMAKQAFEEAIAELDTMGEESYKDSTLIMQLLRDNLTLWTSDMQEQMDEA",binding,[4],binds
same,binding,[5],no binding
same,binding,[6],no binding
same,binding,[7],no binding
same,binding,[8],no binding
"TFT1-HA (protein, UniProt P93206 1-249) MALPENLTREQCLYLAKLAEQAERYEEMVKFMDKLVIGSGSSELTVEERNLLSVAYKNVIGSLRAAWRIVSSIEQKEEGRKNDEHVVLVKDYRSKVESELSDVCAGILKILDQYLIPSASAGESKVFYLKMKGDYYRYLAEFKVGNERKEAAEDTMLAYKAAQDIAVAELAPTHPIRLGLALNFSVFYYEILNASEKACSMAKQAFEEAIAELDTMGEESYKDSTLIMQLLRDNLTLWTSDMQEQMDEA",binding,[9],binds
same,binding,[10],binds
same,binding,[11],binds
same,binding,[12],binds
same,binding,[13],binds
same,binding,[14],binds
same,binding,[15],binds
same,binding,[16],binds weakly
same,binding,[17],no binding
"TFT1-cCFP (protein, UniProt P93206 1-249) MALPENLTREQCLYLAKLAEQAERYEEMVKFMDKLVIGSGSSELTVEERNLLSVAYKNVIGSLRAAWRIVSSIEQKEEGRKNDEHVVLVKDYRSKVESELSDVCAGILKILDQYLIPSASAGESKVFYLKMKGDYYRYLAEFKVGNERKEAAEDTMLAYKAAQDIAVAELAPTHPIRLGLALNFSVFYYEILNASEKACSMAKQAFEEAIAELDTMGEESYKDSTLIMQLLRDNLTLWTSDMQEQMDEA",binding,[18],binds
same,binding,[19],binds weakly
same,binding,[20],binds
